± gives the standard deviation of the averaged measurements. Only a part is listed here, and it is no random draw.
How the values were obtained:
Assay in all cases: NP40-soluble protein abundance relative to vehicle (solubility fold change) (ratio); higher = more soluble protein in presence of ATP
[1] = molecular target: T1, UniProt Q15398-3|Q15398
T1 sequence (whole entry): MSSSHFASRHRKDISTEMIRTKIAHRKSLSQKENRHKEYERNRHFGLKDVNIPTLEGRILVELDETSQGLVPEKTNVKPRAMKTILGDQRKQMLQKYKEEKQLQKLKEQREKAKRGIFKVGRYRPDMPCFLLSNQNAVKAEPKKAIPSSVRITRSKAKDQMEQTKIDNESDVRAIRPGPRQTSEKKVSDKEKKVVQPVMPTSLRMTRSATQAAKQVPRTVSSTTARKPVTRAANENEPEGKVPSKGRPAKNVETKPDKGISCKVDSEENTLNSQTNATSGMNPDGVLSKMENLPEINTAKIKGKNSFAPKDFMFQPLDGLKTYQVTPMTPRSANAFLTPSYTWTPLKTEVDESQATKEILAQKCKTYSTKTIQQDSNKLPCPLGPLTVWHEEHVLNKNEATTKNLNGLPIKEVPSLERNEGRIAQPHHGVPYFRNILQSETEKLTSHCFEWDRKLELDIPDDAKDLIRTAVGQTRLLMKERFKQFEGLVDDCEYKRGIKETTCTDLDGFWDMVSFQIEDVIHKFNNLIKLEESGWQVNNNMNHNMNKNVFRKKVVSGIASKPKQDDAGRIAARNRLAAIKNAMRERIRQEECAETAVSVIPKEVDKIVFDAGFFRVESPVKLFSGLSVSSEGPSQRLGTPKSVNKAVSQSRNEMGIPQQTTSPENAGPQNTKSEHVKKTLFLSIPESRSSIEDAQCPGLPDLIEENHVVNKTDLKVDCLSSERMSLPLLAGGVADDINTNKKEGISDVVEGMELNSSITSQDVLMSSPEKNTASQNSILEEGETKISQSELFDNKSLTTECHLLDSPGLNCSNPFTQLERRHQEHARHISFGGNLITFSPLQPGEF
Method in brief: (§1)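 Data come from three independent experiments in which Dounce-homogenised Jurkat crude lysate was treated at eight concentrations from 0.1 to 10 mM. Treatment ran 10 min at room temperature and then 3 min at 37 °C, after which 0.8% NP40 and benzonase were added for 60 min at 4 °C before ultracentrifugation. The supernatant underwent TMT labelling and LC-MS/MS, and vsn-normalised intensities were expressed as fold change against the detergent-processed vehicle in each replicate.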

[2] = molecular target: T2, UniProt Q15813 and related entries
T2 sequence (whole entry): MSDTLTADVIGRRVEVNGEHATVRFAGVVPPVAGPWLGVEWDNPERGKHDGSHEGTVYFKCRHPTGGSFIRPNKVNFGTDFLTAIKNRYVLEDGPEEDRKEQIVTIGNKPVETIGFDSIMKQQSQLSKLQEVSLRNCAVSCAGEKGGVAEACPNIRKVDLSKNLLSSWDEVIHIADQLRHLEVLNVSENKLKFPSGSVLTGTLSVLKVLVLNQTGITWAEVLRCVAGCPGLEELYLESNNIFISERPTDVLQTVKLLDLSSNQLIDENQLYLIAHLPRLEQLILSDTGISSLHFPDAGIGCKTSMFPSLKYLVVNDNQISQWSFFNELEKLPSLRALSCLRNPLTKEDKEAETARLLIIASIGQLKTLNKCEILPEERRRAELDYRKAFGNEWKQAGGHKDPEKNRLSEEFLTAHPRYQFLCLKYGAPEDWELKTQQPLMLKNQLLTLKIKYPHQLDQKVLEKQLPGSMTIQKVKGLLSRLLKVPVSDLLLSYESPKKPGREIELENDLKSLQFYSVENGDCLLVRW
Method in brief: as §1

[3] = molecular target: T3, UniProt Q16514-2
T3 sequence (whole entry): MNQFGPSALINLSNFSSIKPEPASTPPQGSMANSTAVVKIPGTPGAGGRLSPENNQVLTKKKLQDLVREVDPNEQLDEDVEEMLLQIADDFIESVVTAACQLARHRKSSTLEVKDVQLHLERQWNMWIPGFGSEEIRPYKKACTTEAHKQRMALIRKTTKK
Method in brief: as §1

[4] = molecular target: T4, ZYX (UniProt Q15942)
T4 sequence (whole entry): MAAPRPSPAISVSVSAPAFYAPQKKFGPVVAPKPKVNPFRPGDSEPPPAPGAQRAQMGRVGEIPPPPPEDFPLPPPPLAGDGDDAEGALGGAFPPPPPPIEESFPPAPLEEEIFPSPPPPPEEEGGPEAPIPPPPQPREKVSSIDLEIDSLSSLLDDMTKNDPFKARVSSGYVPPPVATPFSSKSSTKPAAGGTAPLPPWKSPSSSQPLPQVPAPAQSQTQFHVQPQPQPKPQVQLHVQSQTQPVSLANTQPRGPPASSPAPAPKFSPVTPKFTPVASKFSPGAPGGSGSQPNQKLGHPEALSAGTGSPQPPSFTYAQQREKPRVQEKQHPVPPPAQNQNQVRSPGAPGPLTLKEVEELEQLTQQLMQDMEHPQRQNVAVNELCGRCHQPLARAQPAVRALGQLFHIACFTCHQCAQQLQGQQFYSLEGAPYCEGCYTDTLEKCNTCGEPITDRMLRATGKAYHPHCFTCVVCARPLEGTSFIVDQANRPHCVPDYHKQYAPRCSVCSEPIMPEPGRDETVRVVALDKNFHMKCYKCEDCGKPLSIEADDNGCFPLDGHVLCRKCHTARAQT
Method in brief: as §1

Nc1ncnc2c1ncn2[C@@H]1O[C@H](COP(=O)(O)OP(=O)(O)OP(=O)(O)O)[C@@H](O)[C@H]1O [adenosine triphosphate]
NP40-soluble protein abundance ([1]; concentration: 1mM): 0.976 ± 0.029
NP40-soluble protein abundance ([1]; concentration: 2mM): 0.955 ± 0.027
NP40-soluble protein abundance ([1]; concentration: 4mM): 0.946 ± 0.017
NP40-soluble protein abundance ([1]; concentration: 6mM): 0.953 ± 0.023
NP40-soluble protein abundance ([1]; concentration: 8mM): 0.897 ± 0.025
NP40-soluble protein abundance ([1]; concentration: 10mM): 0.891 ± 0.025
NP40-soluble protein abundance ([2]; concentration: 1mM): 0.976 ± 0.011
NP40-soluble protein abundance ([2]; concentration: 2mM): 0.976 ± 0.013
NP40-soluble protein abundance ([2]; concentration: 4mM): 0.949 ± 0.013
NP40-soluble protein abundance ([2]; concentration: 6mM): 0.968 ± 0.051
NP40-soluble protein abundance ([2]; concentration: 8mM): 0.965 ± 0.025
NP40-soluble protein abundance ([2]; concentration: 10mM): 0.947 ± 0.023
NP40-soluble protein abundance ([3]; concentration: 1mM): 1.04 ± 0.13
NP40-soluble protein abundance ([3]; concentration: 2mM): 1.05 ± 0.1
NP40-soluble protein abundance ([3]; concentration: 4mM): 1.02 ± 0.082
NP40-soluble protein abundance ([3]; concentration: 6mM): 1.13 ± 0.14
NP40-soluble protein abundance ([3]; concentration: 8mM): 1.05 ± 0.098
NP40-soluble protein abundance ([3]; concentration: 10mM): 1.13 ± 0.12
NP40-soluble protein abundance ([4]; concentration: 1mM): 0.951 ± 0.045
NP40-soluble protein abundance ([4]; concentration: 2mM): 0.955 ± 0.019
NP40-soluble protein abundance ([4]; concentration: 4mM): 0.925 ± 0.019
NP40-soluble protein abundance ([4]; concentration: 6mM): 0.974 ± 0.011
NP40-soluble protein abundance ([4]; concentration: 8mM): 0.898 ± 0.032
NP40-soluble protein abundance ([4]; concentration: 10mM): 0.939 ± 0.019
